These are yes or no findings as the source states them, for the method shown. In cells and extracts the contact can be indirect. Some results given as binding are weak or reduced against the parent protein; the word gives no strength.
Target: GST-Dp71 fusion protein (human) (UniProt P11532)
Assay: pull-down; GST or GST-Dp71 immobilised on glutathione-Sepharose beads, incubated overnight at 4°C with PC12 nuclear extract (1 mg of cell extract in RIPA buffer with 1% Triton X-100); immunoblot with anti-lamin B1; only the target purified

B1: lamin B1 (endogenous, PC12 cells) (protein, UniProt P70615 1-587)
chain: MATATPVQQRAGSRASAPATPFSPTRLSRLQEKEELRELNDRLAVYIDKVRSLETENSALQLQVTEREEVRGRELTGLKALYETELADARRALDDTARERAKLQIELGKFKAEHDQLLLNYAKKESDLSGAQIKLREYEAALNSKDAALATALGDKKSLEGDLEDLKDQIAQLEASLSAAKKQLADETLLKVDLENRCQSLTEDLEFRKNMYEEEINETRRKHETRLVEVDSGRQIEYEYKLAQALHEMREQHDAQVRLYKEELEQTYHAKLENARLSSEMNTSTVNSARGGMMESRMRIESLSSQLSNLQKDSRACLERIQELEDMLAKERDNSRRMLSDKEREMAEIRDQMQQQLNDYEQLLDVKLALDMEISAYRKLLEGEEERLKLSPSPSSRVTVSRASSSRSVRTTRGKRKRVDVEESEASSSVSISHSASATGNVCIEEIDVDGKFIRLKNTSEQDQPMGGWEMIRKIGDTSVSYKYTSRYVLKAGQTVTVWAANAGVTASPPTDLIWKNQNSWGTGEDVKVVLKNSQGEEVAQRSTVFKTTIPEEEEEEEEEPIGVPLEEERFHQQGTPRASNKSCAIM
- binding: binds

Reference: paper PMC3158767
